Data taken from ChEMBL document CHEMBL3988442, “University of Dundee, Small-Polar-MMV Screening Library” (2021).

Chains of the proteins cited; added tags and fusions are not shown.
UniProt E9BF75, entry or part of it: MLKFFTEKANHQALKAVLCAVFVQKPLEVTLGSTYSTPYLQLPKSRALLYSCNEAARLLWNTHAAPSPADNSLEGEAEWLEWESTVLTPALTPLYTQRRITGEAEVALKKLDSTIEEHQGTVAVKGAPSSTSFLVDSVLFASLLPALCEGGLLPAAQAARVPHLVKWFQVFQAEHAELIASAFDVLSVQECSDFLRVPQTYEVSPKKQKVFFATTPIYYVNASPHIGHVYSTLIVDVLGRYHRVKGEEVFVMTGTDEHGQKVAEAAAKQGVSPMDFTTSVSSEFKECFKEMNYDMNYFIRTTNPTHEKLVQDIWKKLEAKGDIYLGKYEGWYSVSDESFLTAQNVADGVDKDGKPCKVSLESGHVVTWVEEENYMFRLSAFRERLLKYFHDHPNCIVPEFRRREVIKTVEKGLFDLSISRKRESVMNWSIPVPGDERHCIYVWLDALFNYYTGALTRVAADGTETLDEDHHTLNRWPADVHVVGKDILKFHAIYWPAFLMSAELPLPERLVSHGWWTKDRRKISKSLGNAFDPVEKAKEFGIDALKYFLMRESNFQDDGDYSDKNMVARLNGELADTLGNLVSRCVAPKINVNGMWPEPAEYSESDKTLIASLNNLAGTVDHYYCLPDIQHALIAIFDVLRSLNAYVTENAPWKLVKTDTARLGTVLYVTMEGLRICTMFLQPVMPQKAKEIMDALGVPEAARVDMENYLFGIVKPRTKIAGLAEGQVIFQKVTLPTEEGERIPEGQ

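Primary screen of methionyl-tRNA synthetase; the read-out is not stated. Target: Methionyl-tRNA synthetase (putative), Leishmania donovani (UniProt E9BF75). The test concentration is not given. Values are per cent inhibition. About 68,000 compounds were tested under these conditions; 0.035% (about 24) showed 50% or more at least once.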

All values are in %.
How 0% and 100% were set is not recorded. Most values in the screen are low, and negative values occur.
This is an unselected part of the compounds tested.

{"smiles": "COCC(c1ccccn1)N(C)C(=O)c1cc(-c2ccc(O)cc2)n[nH]1", "stereo": "configuration not stated", "inhibition": 8.333}
{"smiles": "CCn1nc(C)c2c1cnn2CC(=O)N1CCN(C)CC1", "inhibition": 9.922}
{"smiles": "O=C1C(Sc2nc(=O)ccn2C2CC2)CCN1c1ccccc1", "stereo": "configuration not stated", "inhibition": 14.76}
{"smiles": "CSC(C)CCN(Cc1ccccn1)Cc1sccc1C", "stereo": "configuration not stated", "inhibition": 11.61}
{"smiles": "CCc1nccn1-c1cncc(C2CCCN2Cc2cccnc2)n1", "stereo": "configuration not stated", "inhibition": 19.23}
{"smiles": "O=C(NCCNc1ncccn1)C1CCN(C(=O)C2CC2)CC1", "inhibition": 12.38}
{"smiles": "O=C(C1CCCO1)N1CCCn2c(nnc2Cn2cccc2)C1", "stereo": "configuration not stated", "inhibition": 11.23}
{"smiles": "Cc1ccc(CN2CCC3(CC2)CC(CC(=O)NC(C)C)CO3)s1", "stereo": "configuration not stated", "inhibition": 3.526}
{"smiles": "CCCc1n[nH]c(C2CN(C(=O)C3=COCCC3)CCO2)n1", "stereo": "configuration not stated", "inhibition": 10.24}
{"smiles": "COCCn1ccc(NCc2sccc2C)n1", "inhibition": 14.8}
{"smiles": "CCN(CCc1nc2cc(C)ccc2[nH]1)C(=O)[C@@H](N)CCSC", "inhibition": 7.444}
{"smiles": "COc1ccc(NC2(C(=O)N3CCn4cncc4C3)CCCC2)cc1", "inhibition": 15.23}
{"smiles": "CC(C)CC1SCC(=O)Nc2c1cnn2-c1ccccc1F", "stereo": "configuration not stated", "inhibition": 17.27}
{"smiles": "O=c1n(Cc2cccc(F)c2)nc2ncccn12", "inhibition": 10.57}
{"smiles": "CCn1ncc(CN(C)C(=O)c2ccn(C)n2)c1C", "inhibition": 17.85}
{"smiles": "CC(C)OCCC(=O)NCC(O)c1c(Cl)cccc1Cl", "stereo": "configuration not stated", "inhibition": 0}
{"smiles": "Cc1ccc(NS(=O)(=O)c2cc3c(c(C(=O)O)c2)OCCO3)c(F)c1", "inhibition": 8.661}
{"smiles": "CSCCc1ccc(NC(=O)NC(C)Cn2cncn2)cc1", "stereo": "configuration not stated", "inhibition": 18.32}
{"smiles": "O=C(NCCc1c[nH]c2ccc(F)cc12)C1(n2cnnn2)CCCCC1", "inhibition": 14.58}
{"smiles": "CC(C)(C)CNCC1(O)CCCN(Cc2ccccc2F)C1=O", "stereo": "configuration not stated", "inhibition": -0.7732}
{"smiles": "COCCCC1(CO)CCCN(Cc2ccc(F)c(OC)c2)C1", "stereo": "configuration not stated", "inhibition": 12.03}
{"smiles": "Cc1ccc(NC(=O)C2CSCN2C(=O)c2cnccn2)cc1C", "stereo": "configuration not stated", "inhibition": 13.72}
{"smiles": "COc1ccc(CN(C)C2CSCCSC2)c2cccnc12", "inhibition": 14.44}
{"smiles": "COc1ccc(C(=O)N2Cc3cc(C)ccc3OCC2CN(C)C)cc1", "stereo": "configuration not stated", "inhibition": 10.94}
{"smiles": "CCn1cc(-c2n[nH]c(=O)n2-c2ccc3c(c2)OCO3)c(C)n1", "inhibition": 7.581}
{"smiles": "Cc1c(CN2CCC(C(=O)O)(n3ccnc3)CC2)oc2ccccc12", "inhibition": 8.964}
{"smiles": "CC(=O)NCC(Cc1cccc(F)c1)n1cccc1", "stereo": "configuration not stated", "inhibition": 9.353}
{"smiles": "c1cc(CN2C[C@@H]3COC[C@]3(COCC3CC3)C2)ccn1", "inhibition": 3.734}
{"smiles": "Cc1cc(=O)[nH]c(-n2nc(-c3ccccc3)cc2N)n1", "inhibition": 7.062}
{"smiles": "COc1cccc(OC)c1-c1ccnc2cc(CC(=O)NC(C)C)nn12", "inhibition": 12.86}
{"smiles": "O=C(NCc1ccco1)[C@H]1C[C@H]2OCC[C@H]2N(C(=O)c2ccco2)C1", "inhibition": 7.95}
{"smiles": "O=C(Cc1ccc(F)cc1)N1CCN(CC(O)c2ccccc2)CC1", "stereo": "configuration not stated", "inhibition": 24.02}
{"smiles": "NC(=O)CN1CCc2c(Br)ccc(F)c2C1", "inhibition": 3.631}
{"smiles": "CC(C)(C)NC(=O)c1ccn(COc2c(Cl)cccc2Cl)n1", "inhibition": 6.516}
{"smiles": "CNC(C(=O)OC)c1cc(F)ccc1F", "stereo": "configuration not stated", "inhibition": 13.64}
{"smiles": "CCn1nc(CC(C)C)cc1C(=O)NCCCN1CCOCC1", "inhibition": 15.21}
{"smiles": "CCN(CC)S(=O)(=O)CC(=O)N1CCc2ccc(F)cc21", "inhibition": 15.13}
{"smiles": "CCSc1cc(C(=O)NCCC(=O)N(C)C)ccn1", "inhibition": 18.56}
{"smiles": "CC(C)COCCNC1CCN(c2ccccn2)CC1", "inhibition": 18.57}
{"smiles": "CC(C)C1CN(c2ncccc2Cl)CCC(=O)N1Cc1ccc(F)cc1", "stereo": "configuration not stated", "inhibition": 11.83}
{"smiles": "O=C(CC1=CCCCC1)NCCc1csc(N2CCCC2)n1", "inhibition": 39.02}
{"smiles": "Cc1nnc(CN2CCOC(c3ccc(Cl)c(Cl)c3)C2)o1", "stereo": "configuration not stated", "inhibition": 17.96}
{"smiles": "CC(OCC(F)(F)F)C(=O)N1CCN(S(C)(=O)=O)CC1", "stereo": "configuration not stated", "inhibition": 10.34}
{"smiles": "O=C(NCc1cccs1)c1nc2c(o1)CN(C(=O)c1cccnc1)C2", "inhibition": -2.151}
{"smiles": "Cc1nc2cc(=O)[nH]n2c(C)c1CC(=O)NCCCc1ccccc1", "inhibition": 20}
{"smiles": "Cc1csc(N2CCCN(Cc3noc(C)n3)CC2)n1", "inhibition": 9.722}
{"smiles": "COc1ccc(CC(=O)Nc2ccc3ncn(C(C)C)c(=O)c3c2)cc1", "inhibition": 7.551}
{"smiles": "CC(C)CCOCCNC(=O)Nc1cc(C(F)(F)F)c[nH]c1=O", "inhibition": 6.667}
{"smiles": "CCCc1cc(N2CCCC2Cn2nc(C)nc2C)n2ncnc2n1", "stereo": "configuration not stated", "inhibition": 5.986}
{"smiles": "CSC1=Nc2c(cnn2-c2ccc(Cl)cc2)C2=NCCCN12", "inhibition": 13.71}
{"smiles": "CC(C)c1cc(NCC2(CO)CCC2)ncn1", "inhibition": 2.062}
{"smiles": "CN1CCC(N[C@@H]2CO[C@H](CNC(=O)Nc3ccccc3)[C@H]2O)CC1", "inhibition": 14.58}
{"smiles": "CCc1sc(-c2nnc(CNC(C)Cn3cccn3)o2)cc1C", "stereo": "configuration not stated", "inhibition": 10.82}
{"smiles": "Cc1ccsc1CN1CCC(c2nnc(Cn3cccn3)n2C)CC1", "inhibition": 14.45}
{"smiles": "O=c1c2cc3c(cc2nnn1Cc1ccccc1)OCCO3", "inhibition": 15.58}
{"smiles": "Cc1nnc2n1CCN(C(=O)c1cn(-c3ccccc3Cl)nn1)C2", "inhibition": 23.5}
{"smiles": "Cc1ccc(CN2C[C@H](N(C)Cc3cncnc3)[C@H]3OCCC[C@H]32)o1", "inhibition": 14.49}
{"smiles": "COCCn1ccc2c(cnc3nc(SC)nn32)c1=O", "inhibition": 18.16}
{"smiles": "Cc1ccc(N2CC[C@H]3[C@@H]2CCC(=O)N3CCN2CCOCC2)nn1", "inhibition": 18.12}

6 of the entries, repeated:

SMILES,inhibition
CSC1=Nc2c(cnn2-c2ccc(Cl)cc2)C2=NCCCN12,13.71
Cc1csc(N2CCCN(Cc3noc(C)n3)CC2)n1,9.722
COCC(c1ccccn1)N(C)C(=O)c1cc(-c2ccc(O)cc2)n[nH]1 (configuration not stated),8.333
COc1ccc(NC2(C(=O)N3CCn4cncc4C3)CCCC2)cc1,15.23
CC(C)c1cc(NCC2(CO)CCC2)ncn1,2.062
CCCc1cc(N2CCCC2Cn2nc(C)nc2C)n2ncnc2n1 (configuration not stated),5.986